{"source": "the supplement of paper PMC10849652", "note": "The list shows a part of the results.", "data": [{"compound": "Cn1cc(CNCC2CCN(c3ncc(C(=O)NO)cn3)CC2)c2ccccc21 [quisinostat]", "test": "log2 fold change, soluble protein after heating vs DMSO (PISA); higher = thermal stabilisation; K562 lysate, 10 uM; active = over 0.2 and 3.5 SD of the protein, either way, in both replicates (recomputed)", "summary_of_the_method": "(§1)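 A 30 min treatment with 10 μM compound was applied to crude K562 extract at 1 mg/mL protein in PBS pH 7.4 with 1 mM MgCl2. Heating for 3 min spanned 48°C-58°C, after which aliquots were pooled, adjusted to 0.5% NP-40 at 4°C and spun at 21,000xg for 90 min. TMTpro 16plex LC-MS/MS of the supernatant, with channel sums equalised, gave values recorded as log-two fold change in thermal stability against solvent controls, from duplicates.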", "values": [{"target": "HAGH (UniProt Q16775)", "log2 fold change": "inactive: -0.054"}, {"target": "HDGFL2 isoform 2 (UniProt Q7Z4V5)", "log2 fold change": "inactive: -0.061"}, {"target": "GTPBP2 (UniProt Q9BX10)", "log2 fold change": "inactive: -0.136"}, {"target": "H1FX (UniProt Q92522)", "log2 fold change": "inactive: -0.017"}, {"target": "GSTZ1 (UniProt G3V4T6)", "log2 fold change": "inactive: 0.016"}, {"target": "HBG1 (UniProt P69891)", "log2 fold change": "inactive: 0.053"}, {"target": "H4C1 (UniProt P62805)", "log2 fold change": "inactive: 0.137"}, {"target": "GSTO1 (UniProt P78417)", "log2 fold change": "inactive: 0.087"}, {"target": "GSR (UniProt P00390)", "log2 fold change": "inactive: -0.028"}, {"target": "HBD (UniProt P02042)", "log2 fold change": "inactive: 0.056"}, {"target": "HADHA (UniProt P40939)", "log2 fold change": "inactive: -0.082"}, {"target": "GSKIP (UniProt Q9P0R6)", "log2 fold change": "inactive: 0.116"}, {"target": "HADH isoform 2 (UniProt Q16836)", "log2 fold change": "inactive: 0.124"}, {"target": "GRAP2 (UniProt O75791)", "log2 fold change": "inactive: 0.057"}, {"target": "HAUS2 (UniProt Q9NVX0)", "log2 fold change": "inactive: -0.04"}, {"target": "HBG2 (UniProt P69892)", "log2 fold change": "inactive: 0.042"}, {"target": "GTF3C3 (UniProt Q9Y5Q9)", "log2 fold change": "inactive: -0.134"}, {"target": "GYS1 (UniProt P13807)", "log2 fold change": "inactive: -0.037"}, {"target": "HADHB (UniProt P55084)", "log2 fold change": "inactive: -0.064"}, {"target": "GPX4 (UniProt P36969)", "log2 fold change": "inactive: -0.012"}, {"target": "HEATR1 (UniProt Q9H583)", "log2 fold change": "inactive: -0.038"}, {"target": "HDLBP, A0A024R4E5", "log2 fold change": "inactive: -0.076"}, {"target": "GTF2F2 (UniProt P13984)", "log2 fold change": "inactive: 0.02"}, {"target": "GSTM3 (UniProt P21266)", "log2 fold change": "inactive: -0.111"}, {"target": "HDAC3 (UniProt O15379)", "log2 fold change": "inactive: -0.004"}, {"target": "GTF2H3 (UniProt Q13889)", "log2 fold change": "inactive: -0.04"}, {"target": "HDAC6 (UniProt Q9UBN7)", "log2 fold change": "inactive: 0.031"}, {"target": "HBS1L isoform 2 (UniProt Q9Y450)", "log2 fold change": "inactive: -0.079"}, {"target": "GRHPR (UniProt Q9UBQ7)", "log2 fold change": "inactive: 0.013"}, {"target": "HAUS3 (UniProt Q68CZ6)", "log2 fold change": "inactive: -0.059"}, {"target": "GTF3C6 (UniProt Q969F1)", "log2 fold change": "inactive: -0.072"}, {"target": "GTF2A1 (UniProt P52655)", "log2 fold change": "inactive: -0.039"}, {"target": "H2AZ1 (UniProt P0C0S5)", "log2 fold change": "inactive: -0.077"}, {"target": "GXYLT1 (UniProt Q4G148)", "log2 fold change": "inactive: -0.012"}, {"target": "HDHD2 (UniProt Q9H0R4)", "log2 fold change": "inactive: 0.032"}, {"target": "HDAC1 (UniProt Q13547)", "log2 fold change": "active: 0.857"}, {"target": "HEATR5A (UniProt Q86XA9)", "log2 fold change": "inactive: 0.031"}, {"target": "GTF2E2 (UniProt P29084)", "log2 fold change": "inactive: -0.056"}, {"target": "GRWD1 (UniProt Q9BQ67)", "log2 fold change": "inactive: -0.072"}]}, {"compound": "Cn1cncc1[C@@](N)(c1ccc(Cl)cc1)c1ccc2c(c1)c(-c1cccc(Cl)c1)cc(=O)n2C [tipifarnib]", "test": "log2 fold change, soluble protein after heating vs DMSO (PISA); higher = thermal stabilisation; K562 lysate, 10 uM; active = over 0.2 and 3.5 SD of the protein, either way, in both replicates (recomputed)", "summary_of_the_method": "as §1", "values": [{"target": "HAGH (UniProt Q16775)", "log2 fold change": "inactive: -0.011"}, {"target": "HDGFL2 isoform 2 (UniProt Q7Z4V5)", "log2 fold change": "inactive: 0.003"}, {"target": "GTPBP2 (UniProt Q9BX10)", "log2 fold change": "inactive: -0.079"}, {"target": "H1FX (UniProt Q92522)", "log2 fold change": "inactive: 0.043"}, {"target": "GSTZ1 (UniProt G3V4T6)", "log2 fold change": "inactive: 0.014"}, {"target": "HBG1 (UniProt P69891)", "log2 fold change": "inactive: 0.021"}, {"target": "H4C1 (UniProt P62805)", "log2 fold change": "inactive: 0"}, {"target": "GSTO1 (UniProt P78417)", "log2 fold change": "inactive: 0.031"}, {"target": "GSR (UniProt P00390)", "log2 fold change": "inactive: 0.001"}, {"target": "HBD (UniProt P02042)", "log2 fold change": "inactive: 0.02"}, {"target": "HADHA (UniProt P40939)", "log2 fold change": "inactive: 0.025"}, {"target": "GSKIP (UniProt Q9P0R6)", "log2 fold change": "inactive: 0.025"}, {"target": "HADH isoform 2 (UniProt Q16836)", "log2 fold change": "inactive: 0.032"}, {"target": "GRAP2 (UniProt O75791)", "log2 fold change": "inactive: 0.038"}, {"target": "HAUS2 (UniProt Q9NVX0)", "log2 fold change": "inactive: -0.034"}, {"target": "HBG2 (UniProt P69892)", "log2 fold change": "inactive: 0.062"}, {"target": "GTF3C3 (UniProt Q9Y5Q9)", "log2 fold change": "inactive: -0.057"}, {"target": "GYS1 (UniProt P13807)", "log2 fold change": "inactive: 0.031"}, {"target": "HADHB (UniProt P55084)", "log2 fold change": "inactive: 0.028"}, {"target": "GPX4 (UniProt P36969)", "log2 fold change": "inactive: -0.009"}, {"target": "HEATR1 (UniProt Q9H583)", "log2 fold change": "inactive: -0.015"}, {"target": "HDLBP, A0A024R4E5", "log2 fold change": "inactive: 0.001"}, {"target": "GTF2F2 (UniProt P13984)", "log2 fold change": "inactive: 0.003"}, {"target": "GSTM3 (UniProt P21266)", "log2 fold change": "inactive: 0.077"}, {"target": "HDAC3 (UniProt O15379)", "log2 fold change": "inactive: -0.102"}, {"target": "GTF2H3 (UniProt Q13889)", "log2 fold change": "inactive: -0.049"}, {"target": "HDAC6 (UniProt Q9UBN7)", "log2 fold change": "inactive: 0.024"}, {"target": "HBS1L isoform 2 (UniProt Q9Y450)", "log2 fold change": "inactive: 0.009"}, {"target": "GRHPR (UniProt Q9UBQ7)", "log2 fold change": "inactive: 0.043"}, {"target": "HAUS3 (UniProt Q68CZ6)", "log2 fold change": "inactive: -0.045"}, {"target": "GTF3C6 (UniProt Q969F1)", "log2 fold change": "inactive: -0.083"}, {"target": "GTF2A1 (UniProt P52655)", "log2 fold change": "inactive: 0.021"}, {"target": "H2AZ1 (UniProt P0C0S5)", "log2 fold change": "inactive: -0.055"}, {"target": "GXYLT1 (UniProt Q4G148)", "log2 fold change": "inactive: -0.109"}, {"target": "HDHD2 (UniProt Q9H0R4)", "log2 fold change": "inactive: 0.004"}, {"target": "HDAC1 (UniProt Q13547)", "log2 fold change": "inactive: -0.041"}, {"target": "HEATR5A (UniProt Q86XA9)", "log2 fold change": "inactive: -0.048"}, {"target": "GTF2E2 (UniProt P29084)", "log2 fold change": "inactive: 0.048"}, {"target": "GRWD1 (UniProt Q9BQ67)", "log2 fold change": "inactive: 0.012"}]}]}
